PMC11117661, “Development of a Novel In Silico Classification Model to Assess Reactive Metabolite Formation in the Cysteine Trapping Assay and Investigation of Important Substructures” (Biomolecules, 2024)

Test: cysteine trapping assay ([35S]cysteine, HPLC with radiomatic detector) for reactive metabolites
Details: human liver microsome 2 mg/mL, L-[35S]-Cysteine, NADPH, 37 °C, 2 h

COc1cc2c(cc1OC)C(=O)C(CC1CCN(Cc3ccccc3)CC1)C2 (stereo not shown) [Donepezil]
RI integrated area: 38.4 count
